According to publication PMC11832342:
These are yes or no findings as the source states them, for the method shown. In cells and extracts the contact can be indirect. Some binding calls cover weakened binding; strength is not graded here. Where a sequence is shown, tags or fusion partners need not be part of it.

Target: T1, AGO3 fused to split YFP (BiFC) (Arabidopsis) (UniProt Q9SHF2)
T1 sequence: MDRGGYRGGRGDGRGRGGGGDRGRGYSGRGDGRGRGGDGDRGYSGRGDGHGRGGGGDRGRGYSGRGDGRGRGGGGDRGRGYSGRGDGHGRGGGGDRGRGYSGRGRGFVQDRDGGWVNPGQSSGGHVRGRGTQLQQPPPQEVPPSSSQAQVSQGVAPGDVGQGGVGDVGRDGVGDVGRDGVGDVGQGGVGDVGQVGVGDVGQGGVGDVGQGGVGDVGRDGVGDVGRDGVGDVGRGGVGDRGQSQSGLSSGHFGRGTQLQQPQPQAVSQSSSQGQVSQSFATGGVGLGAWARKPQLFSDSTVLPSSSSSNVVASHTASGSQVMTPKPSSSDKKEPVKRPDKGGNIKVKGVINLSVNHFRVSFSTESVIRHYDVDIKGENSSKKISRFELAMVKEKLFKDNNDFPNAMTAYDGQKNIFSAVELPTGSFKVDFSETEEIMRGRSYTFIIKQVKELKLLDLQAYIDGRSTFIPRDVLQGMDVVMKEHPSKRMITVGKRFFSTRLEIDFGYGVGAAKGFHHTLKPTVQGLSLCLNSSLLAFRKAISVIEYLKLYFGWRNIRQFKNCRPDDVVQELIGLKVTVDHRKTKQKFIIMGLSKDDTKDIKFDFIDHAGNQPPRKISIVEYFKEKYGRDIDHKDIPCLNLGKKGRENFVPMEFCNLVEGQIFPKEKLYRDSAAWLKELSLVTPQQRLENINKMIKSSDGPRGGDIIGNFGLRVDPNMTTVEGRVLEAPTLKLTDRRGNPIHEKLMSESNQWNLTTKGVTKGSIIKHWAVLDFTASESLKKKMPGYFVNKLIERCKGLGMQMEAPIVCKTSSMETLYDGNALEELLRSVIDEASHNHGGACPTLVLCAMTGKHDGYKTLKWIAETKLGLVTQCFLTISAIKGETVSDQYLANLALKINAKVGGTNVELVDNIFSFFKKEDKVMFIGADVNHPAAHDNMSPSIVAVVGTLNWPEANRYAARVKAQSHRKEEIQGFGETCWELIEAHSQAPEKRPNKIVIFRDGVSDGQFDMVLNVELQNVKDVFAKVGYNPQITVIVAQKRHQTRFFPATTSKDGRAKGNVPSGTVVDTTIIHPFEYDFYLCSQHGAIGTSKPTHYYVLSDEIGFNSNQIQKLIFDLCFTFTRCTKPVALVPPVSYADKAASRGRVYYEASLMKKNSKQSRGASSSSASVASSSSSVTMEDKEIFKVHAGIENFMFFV
Test: split reporter; BiFC with split YFP from pBiFC-2in1 vectors in Agrobacterium-infiltrated Nicotiana benthamiana leaves; imaged 3 days after infiltration by confocal microscopy; p35S::RFP as transformation control

B1: NHP2 fused to split YFP (BiFC) (protein, UniProt Q9LEY9 1-156)
chain: MGSDTEAEKSIQKEKKKYAITLAPIAKPLAGKKLQKRTFKLIQKAAGKKCLKRGVKEVVKSIRRGQKGLCVIAGNISPIDVITHLPILCEEAGVPYVYVPSKEDLAQAGATKRPTCCVLVMLKPAKGDLTAEELAKLKTDYEQVSDDIKELATSVI
binding: binds
